Source: PubChem BioAssay AID743121 (NCATS, 2013)

Purpose: 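Genes whose silencing strengthens cell killing by camptothecin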 (primary screen)
Cell system: MDA-MB-231 cells, a human breast cancer line
Reagents: single siRNA against human genes, 20 nM siRNA (0.8 pmol per well)
Duration: 120 h (drug added 48 h after transfection, read 72 h later)
Treatment: camptothecin 20 nM (about EC30) for 72 h; vehicle 0.1% DMSO in parallel plates
Detection: 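Cell viability by ATP luminescence (CellTiter-Glo) as % of non-targeting siRNA wells, and the log2 ratio of viability without drug over viability with camptothecin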
Scale: log2 vehicle/camptothecin viability: higher = stronger sensitisation to camptothecin
Active means: 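Active genes have an RSA gene-level p-value below 0.001, computed from the ratios of their separate siRNAs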
Here is one part, drawn at random, of about 26,000 reagents tested. Over the whole deposit, 167 (0.63%) were called active. 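Calls are per gene from RSA p-values that are not deposited; an individual active-marked siRNA can sensitise only weakly.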 Entries without a mark were called inactive. Reagents against one gene are numbered here. Not all columns of the deposit are shown.

log2 vehicle/camptothecin viability, by target gene and reagent
ERN2: #1 -0.313; #2 -0.534; #3 -0.0674; #4 0.513
TRIP6: #1 0.0687; #2 -0.279; #3 -0.16
KIF26A: #1 0.131; #2 -0.28; #3 0.0374; #4 -0.0509
NFIB: #1 -0.459; #2 -0.121; #3 -0.239; #4 -0.188
PIP5KL1: #1 -0.361; #2 -0.491; #3 -0.51; #4 -0.596; #5 -0.206; #6 0.0145
DLG5: #1 0.0934; #2 -0.765; #3 -1.02; #4 0.233
CKS1B: #1 0.313; #2 1.38; #3 -0.0167; #4 -0.192
KCNB2: #1 0.279; #2 -0.381; #3 -0.262
PLK1: #1 -0.247; #2 -0.0628; #3 -0.843; #4 0.367
ATXN3L: #1 3.32 (active); #2 0.19 (active); #3 0.61 (active); #4 -0.426 (active)
IL17RC: #1 -0.0539; #2 -0.18; #3 0.347; #4 0.709
SSX2: #1 -0.117; #2 -0.402; #3 -0.164; #4 -0.449

Taken from above.
Entry for DLG5 #1 in “log2 vehicle/camptothecin viability”: 0.0934
KIF26A #3, log2 vehicle/camptothecin viability → 0.0374
Value for CKS1B #4 under “log2 vehicle/camptothecin viability”: -0.192
For “log2 vehicle/camptothecin viability”, ERN2 #4 is entered as 0.513
